System: SAGA P dimers
Assay: Native MS glycan clustering ratio on SAGA P dimers
Type: binding, human norovirus (hNoV)
Settings: on SAGA P dimer

| Compound | Glycan-Clustering Ratio R (100 µM glycan) | Glycan-Clustering Ratio R (200 µM glycan) | Glycan-Clustering Ratio R (300 µM glycan) | Glycan-Clustering Ratio R (400 µM glycan) | Glycan-Clustering Ratio R (500 µM glycan) |
| --- | --- | --- | --- | --- | --- |
| CC(=O)N[C@H]1[C@H](O[C@H]2[C@@H](O)[C@@H](CO)O[C@H](O[C@@H]3[C@H](O)[C@@H](O)[C@H](O[C@H]4[C@H](O)[C@@H](O)C(O)O[C@@H]4CO)O[C@@H]3CO)[C@@H]2O)O[C@H](CO)[C@H](O)[C@@H]1O (stereo partly drawn) [Gb4, GalNAc β1-3 Galα1-4Galβ1-4Glc] | 0.35±0.06 | 0.60± 0.09 | 1.05±0.09 | 1.21± 0.15 | 1.40 ± 0.21 |
| CC(=O)N[C@H]1[C@@H](O[C@H]2[C@@H](O)[C@@H](CO)O[C@@H](O[C@H]3[C@H](O)[C@@H](CO)OC(O)[C@@H]3NC(C)=O)[C@@H]2O[C@@H]2O[C@@H](C)[C@@H](O)[C@@H](O)[C@@H]2O)O[C@H](CO)[C@H](O)[C@@H]1O (stereo partly drawn) [HBGA A, GalNAcα1-3(Fucα-2)Galβ1-3GlcNAc] | 0.37± 0.13 | 0.66± 0.10 | 0.98± 0.08 | 1.34± 0.26 | 1.44 ± 0.15 |
| CC(=O)N[C@H]1C(O)O[C@H](CO)[C@@H](O)[C@@H]1O[C@@H]1O[C@H](CO)[C@H](O)[C@H](O[C@H]2O[C@H](CO)[C@H](O)[C@H](O)[C@H]2O)[C@H]1O[C@@H]1O[C@@H](C)[C@@H](O)[C@@H](O)[C@@H]1O (stereo partly drawn) [HBGA B, Galα1-3(Fucα1-2)Galβ1-3GlcNAc] | 0.44± 0.07 | 0.62± 0.05 | 1.01± 0.02 | 1.31± 0.20 | 1.55 ± 0.05 |
